Laboratory results: patent US20220289837A1, “Cystic Fibrosis Transmembrane Conductance Regulator Stabilizing Agents” (VIB VZW, priority 2019, published 2022)
Results are given in words; binding and its absence hold for the method and conditions named. Some binding calls cover weakened binding; strength is not graded here.

The chains behind the UniProt entries cited, without tags or fusion partners. Where a name states a change or a piece, a line headed by the entry shows the natural chain unless it says otherwise.
UniProt P13569: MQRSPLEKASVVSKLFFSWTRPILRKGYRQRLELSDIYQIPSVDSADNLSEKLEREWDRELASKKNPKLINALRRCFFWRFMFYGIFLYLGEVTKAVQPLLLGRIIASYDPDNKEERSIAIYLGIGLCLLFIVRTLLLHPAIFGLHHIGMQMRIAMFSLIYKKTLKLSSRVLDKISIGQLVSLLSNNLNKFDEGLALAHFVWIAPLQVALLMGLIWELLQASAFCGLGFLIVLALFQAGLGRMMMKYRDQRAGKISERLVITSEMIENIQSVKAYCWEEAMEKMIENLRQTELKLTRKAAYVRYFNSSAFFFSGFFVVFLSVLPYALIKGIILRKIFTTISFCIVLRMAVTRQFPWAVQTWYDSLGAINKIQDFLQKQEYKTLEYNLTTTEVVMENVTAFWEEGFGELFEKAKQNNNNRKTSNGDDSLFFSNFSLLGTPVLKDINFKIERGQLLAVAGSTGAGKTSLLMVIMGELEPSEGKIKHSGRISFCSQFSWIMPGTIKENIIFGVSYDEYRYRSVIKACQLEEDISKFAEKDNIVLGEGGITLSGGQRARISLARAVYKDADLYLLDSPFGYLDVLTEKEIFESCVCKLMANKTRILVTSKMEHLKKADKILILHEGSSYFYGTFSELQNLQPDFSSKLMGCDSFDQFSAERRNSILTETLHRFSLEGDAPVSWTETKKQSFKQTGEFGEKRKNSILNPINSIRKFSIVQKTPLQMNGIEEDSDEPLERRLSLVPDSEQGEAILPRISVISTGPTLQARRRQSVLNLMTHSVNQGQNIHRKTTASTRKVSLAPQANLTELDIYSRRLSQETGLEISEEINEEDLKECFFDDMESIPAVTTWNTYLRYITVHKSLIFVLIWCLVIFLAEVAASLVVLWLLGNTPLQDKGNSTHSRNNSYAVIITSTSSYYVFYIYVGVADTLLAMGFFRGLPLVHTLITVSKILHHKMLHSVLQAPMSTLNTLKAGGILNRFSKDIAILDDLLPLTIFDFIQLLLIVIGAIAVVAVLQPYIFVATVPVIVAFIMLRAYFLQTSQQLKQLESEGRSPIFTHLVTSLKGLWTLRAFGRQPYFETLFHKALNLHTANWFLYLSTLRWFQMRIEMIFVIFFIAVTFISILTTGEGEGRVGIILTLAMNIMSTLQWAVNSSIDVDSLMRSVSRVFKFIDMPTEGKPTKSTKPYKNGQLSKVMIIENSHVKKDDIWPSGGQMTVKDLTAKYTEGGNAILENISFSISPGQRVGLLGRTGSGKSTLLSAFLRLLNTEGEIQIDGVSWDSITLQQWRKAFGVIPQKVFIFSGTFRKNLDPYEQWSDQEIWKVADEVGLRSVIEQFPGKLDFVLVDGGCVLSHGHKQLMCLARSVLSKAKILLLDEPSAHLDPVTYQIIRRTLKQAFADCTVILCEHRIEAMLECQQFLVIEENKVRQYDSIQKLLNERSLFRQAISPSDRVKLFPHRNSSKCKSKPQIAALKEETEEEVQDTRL

Experiments:
[1] = target: NBD1 (nucleotide-binding domain 1 of CFTR; construct not stated) (Homo sapiens (Human)) (UniProt P13569); assay: structural and functional analyses, data not shown
[2] = target: NBD1 (nucleotide-binding domain 1 of CFTR; construct not stated) (Homo sapiens (Human)) (UniProt P13569); assay: crystal structure of the nanobody-NBD1 complex

B1: Nanobody G5 (VHH)
VHH: QVQLQESGGGLVQAGGSLRLACAATGSIRNINTMGWYRQAPGKQRDMVAFITRAGNTDYADSVKGRFTISRDNARNTVYLRMNSLKPEDTATYYCHAEIAERSRPFYLTDDYWGQGTQVTVSS
**Q.** Which binding [1] does the source give for B1 here?
**A.** binds

B2: Nanobody T8 (VHH, not shown: small tags and cut ends)
VHH: QVQLQESGGGLVQPGGSLRLSCAASGSTSSINAMGWYRQAPGKQREPVAISSSGGDTRYAEPVKGRFTISRDNAQNKVYLQMNSLKPEDTAVYYCWLNWGRTSVNSWGQGTQVTVSS
**Q.** B2 was tested. Which binding [2] did it give?
**A.** binds
